# Assay results: the supplement of paper PMC4635364
# Counter-ions that a name gives are not always drawn. This is one part of the list. Single values are uncertain here, since repeats match poorly.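 ReNCell VM, a human fetal ventral-midbrain neural progenitor line, was differentiated without mitogens. Blinded raters scored images stained for doublecortin (early neurons) or tyrosine hydroxylase (dopaminergic neurons) against untreated wells (0 = no change). Scores were averaged across repeats and both raters, and compounds averaging 2 or more were selected as hits for retesting.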
# What was measured:
# [1] = tested on: ReNCell VM; test: neuronal differentiation score (DCX+ cell fraction vs untreated, manual image score) (score (-3 to 3)); higher = more neuronal differentiation; conditions: 2 uM, 2 weeks
# [2] = tested on: ReNCell VM; test: dopaminergic neuron differentiation score (TH+ cell fraction vs untreated, manual image score) (score (0 to 3)); higher = more TH+ dopaminergic neuron differentiation; conditions: 2 uM, 4 weeks, BDNF 10 ng/ml + GDNF 10 ng/ml
smiles,measurement,setting,value
N[C@@H]1CCN(O)C1=O,neuronal differentiation score,[1]; library: Tocriscreen,inactive: 0
same,dopaminergic neuron differentiation score,[2]; library: Tocriscreen,inactive: 0
Cl.N=C(N)NCCC[C@H](N)C(=O)O,neuronal differentiation score,[1]; library: Spectrum,inactive: 1
same,dopaminergic neuron differentiation score,[2]; library: Spectrum,inactive: 0
CC(=O)N(O)CCCCCNC(=O)CCC(=O)N(O)CCCCCNC(=O)CCC(=O)N(O)CCCCCN [Deferoxamine mesylate],neuronal differentiation score,[1]; library: Prestwick,inactive: 0
same,dopaminergic neuron differentiation score,[2]; library: Prestwick,inactive: 0
COc1cc(C(C)=O)cc(OC)c1O,neuronal differentiation score,[1]; library: Spectrum,inactive: 0
same,dopaminergic neuron differentiation score,[2]; library: Spectrum,inactive: 0
CNC(=N)NCCC[C@H](N)C(=O)O,neuronal differentiation score,[1]; library: Spectrum,inactive: 0
same,dopaminergic neuron differentiation score,[2]; library: Spectrum,inactive: 0
CNC[C@H](O)c1cccc(O)c1 [Phenylephrine hydrochloride],neuronal differentiation score,[1]; library: LOPAC,inactive: 0
same,dopaminergic neuron differentiation score,[2]; library: LOPAC,inactive: 0
COc1c(-c2ccccc2)oc2c(ccc3occc32)c1=O [karanjin],neuronal differentiation score,[1]; library: Natural,inactive: 0
same,dopaminergic neuron differentiation score,[2]; library: Natural,inactive: 0
CC(=O)OCC1=C(C(=O)O)N2C(=O)[C@@H](NC(=O)Cc3cccs3)[C@H]2SC1 [Cephalothin sodium salt],neuronal differentiation score,[1]; library: Prestwick,inactive: 0
same,dopaminergic neuron differentiation score,[2]; library: Prestwick,inactive: 0
O=C(O)/C=C/c1cnc[nH]1 [4-Imidazoleacrylic acid],neuronal differentiation score,[1]; library: LOPAC,inactive: 0
same,dopaminergic neuron differentiation score,[2]; library: LOPAC,inactive: 0
COC(=O)C1=C(C)NC(C)=C(C(=O)OC(C)(C)CN(C)CCC(c2ccccc2)c2ccccc2)C1c1cccc([N+](=O)[O-])c1 (stereo unspecified) [Lercanidipine hydrochloride hemihydrate],neuronal differentiation score,[1]; library: LOPAC,inactive: 0
same,dopaminergic neuron differentiation score,[2]; library: LOPAC,inactive: 0
CN[C@H]1CC[C@@]2(C)C(=CC[C@H]3[C@@H]4CC[C@@H]5[C@H](C)N(C)C[C@@]54CC[C@@H]32)C1 [Isoconessimine],neuronal differentiation score,[1]; library: Phytochemical,inactive: 0
same,dopaminergic neuron differentiation score,[2]; library: Phytochemical,inactive: 0
C[C@H]1[C@@H](O)O[C@@H]2O[C@@]3(C)CC[C@H]4[C@H](C)CC[C@@H]1[C@@]24OO3,neuronal differentiation score,[1]; library: Spectrum,inactive: 0
same,dopaminergic neuron differentiation score,[2]; library: Spectrum,inactive: 0
CCCCC1=NC2(CCCC2)C(=O)N1Cc1ccc(-c2ccccc2-c2nnn[nH]2)cc1,neuronal differentiation score,[1]; library: Spectrum,inactive: 0
same,dopaminergic neuron differentiation score,[2]; library: Spectrum,inactive: 0
c1ccc(CN(CC2=NCCN2)c2ccccc2)cc1,neuronal differentiation score,[1]; library: Spectrum,inactive: 0
same,dopaminergic neuron differentiation score,[2]; library: Spectrum,inactive: 0
CC(=O)N(CC(O)CO)c1c(I)c(C(=O)NCC(O)CO)c(I)c(C(=O)NCC(O)CO)c1I (stereo unspecified),neuronal differentiation score,[1]; library: Spectrum,inactive: 0
same,dopaminergic neuron differentiation score,[2]; library: Spectrum,inactive: 0
CC(CCc1ccc(O)cc1)NCCc1ccc(O)c(O)c1 (stereo unspecified),neuronal differentiation score,[1]; library: Spectrum,inactive: 0
same,dopaminergic neuron differentiation score,[2]; library: Spectrum,inactive: 0
CC(=O)[C@H]1CC[C@H]2[C@@H]3CCC4=CC(=O)CC[C@]4(C)[C@H]3CC[C@]12C,neuronal differentiation score,[1]; library: Spectrum,inactive: -1
same,dopaminergic neuron differentiation score,[2]; library: Spectrum,inactive: 0
CC(C)NC[C@@H](O)COc1ccc(CC(N)=O)cc1 [R(+)-Atenolol],neuronal differentiation score,[1]; library: LOPAC,active: 2
same,dopaminergic neuron differentiation score,[2]; library: LOPAC,inactive: 1
N=C(NCCCCCCNC(=N)NC(=N)Nc1ccc(Cl)cc1)NC(=N)Nc1ccc(Cl)cc1,neuronal differentiation score,[1]; library: Spectrum,inactive: 0
same,dopaminergic neuron differentiation score,[2]; library: Spectrum,inactive: 0
c1ccc2c(c1)CCCC2C1=NCCN1 (stereo unspecified),neuronal differentiation score,[1]; library: Spectrum,inactive: 0
same,dopaminergic neuron differentiation score,[2]; library: Spectrum,inactive: 0
CCCCC1C(=O)N(c2ccccc2)N(c2ccccc2)C1=O,neuronal differentiation score,[1]; library: Spectrum,inactive: 0
same,dopaminergic neuron differentiation score,[2]; library: Spectrum,inactive: 0
C/C=C(/C)C(=O)O[C@@H]1[C@H](OC(=O)[C@@]2(C)O[C@H]2C)c2cc3ccc(=O)oc3cc2OC1(C)C [peuarenarine],neuronal differentiation score,[1]; library: Natural,inactive: 0
same,dopaminergic neuron differentiation score,[2]; library: Natural,inactive: 0
OCCOCCN1CCN(C(c2ccccc2)c2ccc(Cl)cc2)CC1 (stereo unspecified),neuronal differentiation score,[1]; library: Spectrum,inactive: 0
same,dopaminergic neuron differentiation score,[2]; library: Spectrum,inactive: 0
CC(C)(C)NCC(O)c1cc(O)cc(O)c1 (stereo unspecified),neuronal differentiation score,[1]; library: Spectrum,inactive: 1
same,dopaminergic neuron differentiation score,[2]; library: Spectrum,inactive: 0
Cc1cc(N)c2ccccc2[n+]1CCCCCCCCCC[n+]1c(C)cc(N)c2ccccc21,neuronal differentiation score,[1]; library: Spectrum,inactive: 0
same,dopaminergic neuron differentiation score,[2]; library: Spectrum,inactive: 0
O=C(O)c1cc(/N=N/c2ccc(S(=O)(=O)Nc3ccccn3)cc2)ccc1O,neuronal differentiation score,[1]; library: Spectrum,inactive: 0
same,dopaminergic neuron differentiation score,[2]; library: Spectrum,inactive: 1
Nc1c(S(=O)(=O)O)cc(Nc2ccc(Nc3nc(Cl)nc(Nc4cccc(S(=O)(=O)O)c4)n3)c(S(=O)(=O)O)c2)c2c1C(=O)c1ccccc1C2=O [Reactive Blue 2],neuronal differentiation score,[1]; library: LOPAC,inactive: 0
same,dopaminergic neuron differentiation score,[2]; library: LOPAC,inactive: 0
CC(=O)Oc1cccc2c1C(=O)c1c(OC(C)=O)cc(C(=O)O)cc1C2=O,neuronal differentiation score,[1]; library: Spectrum,inactive: 0
same,dopaminergic neuron differentiation score,[2]; library: Spectrum,inactive: 0
CC(=O)Oc1ccc2c(c1OC(C)=O)OCC1(O)Cc3c(cc(OC(C)=O)c(OC(C)=O)c3OC(C)=O)C21 (stereo unspecified),neuronal differentiation score,[1]; library: Spectrum,inactive: 0
same,dopaminergic neuron differentiation score,[2]; library: Spectrum,inactive: 0
O=C1N[C@@H](Cc2c[nH]c3ccccc23)C(=O)N[C@H]1Cc1c[nH]c2ccccc12 [cyclo(tryptophyltryptophyl)],neuronal differentiation score,[1]; library: Natural,inactive: 0
same,dopaminergic neuron differentiation score,[2]; library: Natural,inactive: 0
CCCn1c(=O)[nH]c(=O)c2[nH]cnc21 [3-n-Propylxanthine],neuronal differentiation score,[1]; library: LOPAC,inactive: 0
same,dopaminergic neuron differentiation score,[2]; library: LOPAC,inactive: 0
Cc1nnc(NS(=O)(=O)c2ccc(N)cc2)s1,neuronal differentiation score,[1]; library: Spectrum,inactive: 0
same,dopaminergic neuron differentiation score,[2]; library: Spectrum,inactive: 0
CC(=O)O[C@H]1C[C@@]2(C)[C@@H](C[C@@H](O)[C@H]3[C@@]4(C)CC[C@@H](O)[C@@H](C)[C@@H]4CC[C@@]32C)/C1=C(\CCC=C(C)C)C(=O)O,neuronal differentiation score,[1]; library: Spectrum,inactive: 0
same,dopaminergic neuron differentiation score,[2]; library: Spectrum,inactive: 0
